# Data source: PubChem BioAssay AID504791 (Drosophila RNAi Screening Center, 2011)
# Test: 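Genes whose knock-down strengthens or weakens small-RNA reporter silencing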 (primary screen)
# Cell system: Drosophila S2-derived reporter cells
# Reagent: long dsRNA against Drosophila genes, about 150-250 ng dsRNA per well (siRNA assay); about 80-120 ng (miRNA assay)
# Timing: about 5 days (siRNA assay); about 4 days (miRNA assay)
# Treatment: copper sulfate induction of reporters: 25 µM (siRNA assay); 200 mM stated (miRNA assay), 1-2 days before reading
# Measurement: 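Dual luciferase assay: Renilla to firefly signal ratio in each well, scaled to the mean ratio of its plate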
# Scale: siRNA reporter hit score: higher = 3 marks a strong hit with raised ratio; -3 a strong hit with lowered ratio
# Call rule: 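First-pass picks had plate-scaled ratios over 1.5 for the siRNA assay, over 1.6 for the miRNA assay, or under 0.6; two distinct dsRNAs had to score alike on retest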
# The deposit covers about 23,000 reagents; this is an unselected part of those that have a named target and a result. Of all reagents, 199 (0.86%) got an active call. 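Plate-scaled ratios behind the calls are not deposited; printed light signals are raw; many rows marked increased or decreased are still called inactive.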 A number with no mark means an inactive call. The numbers tell different reagents against one gene apart. A plus sign joins genes that one reagent is predicted to hit.
Target gene,reagent,siRNA reporter hit score,stable siRNA reporter change,miRNA reporter change,"stable assay Renilla, run 1 (luminescence)","stable assay firefly, run 1 (luminescence)"
PNKP (Polynucleotide kinase 3'-phosphatase),1,,,,7203,4.87e5
CG10283,1,,,,7642,1.02e6
CG14448,1,,,,6780,3.57e5
Cby (Chibby),1,,,,8495,3.78e5
CG6443,1,,,,7971,1.16e6
trbl (tribbles),1,,,,7386,3.78e5
CG17717,1,,,,5286,3.11e5
CG6040,1,,,,8603,3.21e5
CG3739,1,,,,6816,3.21e5
ArfGAP3 (ADP-ribosylation factor GTPase activating protein 3),1,,,,10271,3.00e5
ERR (estrogen-related receptor),1,,,,8271,4.18e5
Ttc30 (Tetratricopeptide repeat domain 30),1,,,,5119,4.95e5
Ttc30 (Tetratricopeptide repeat domain 30),2,,,,4408,4.91e5
CG3592,1,,,,6654,3.64e5
CG9368,1,,,,8432,3.46e5
Act42A (Actin 42A),1,,,,5415,4.21e5
CG5555,1,,,,10197,4.71e5
CG7083,1,,,,5771,4.03e5
mthl13 (methuselah-like 13),1,,,,4804,3.62e5
CoRest,1,,,,4983,4.46e5
CoRest,2,,,,7446,4.28e5
CoRest,3,,,,5991,4.11e5
Leash,1,,,,6214,3.72e5
CG14285,1,,,,7854,4.74e5
CG11593,1,,,,5406,3.13e5
Teh3 (tipE homolog 3),1,,,,6963,3.34e5
RpS8 (Ribosomal protein S8),1,3,,,5915,3.44e5
Sf3b3 (Splicing factor 3b subunit 3),1,,reporter ratio lowered past the hit cutoff (active),reporter ratio lowered past the hit cutoff,13040,8.76e5
CG30432,1,,,,5288,4.29e5
p130CAS + Dic61B,1,,,,12584,4.29e5
CG17571,1,,,,5888,3.33e5
CG17571,2,,,,6926,3.86e5
CG15432,1,,,,8039,4.38e5
CG8292,1,,,,8503,3.31e5
CG15891 + CG15892,1,,,,5017,4.64e5
CG15891 + CG15892,2,,,,5076,3.56e5
CG6340,1,,,,5627,4.07e5
CG14422,1,,,,5900,4.18e5
CG5500,1,,,,6415,4.25e5
dgt1 (dim gamma-tubulin 1),1,,,,13927,5.83e5
Gr97a (Gustatory receptor 97a),1,,,,3844,3.46e5
CG33453,1,,,,5206,4.00e5
CG18599,1,,,,3576,3.40e5
CG18599,2,,,reporter ratio raised past the hit cutoff,3556,2.56e5
CG18599,3,,,,3815,2.80e5
CG31809,1,,,,4734,3.25e5
Cht9 (Chitinase 9),1,,,,1.79e5,4.01e5
CG34248,1,,,,6679,4.58e5
CG18130,1,,,,5918,5.61e5
gogo (golden goal),1,,,,6167,3.70e5
gogo (golden goal),2,,,,6411,3.50e5
HINT1 (histidine triad nucleotide binding protein 1),1,,,,7912,4.77e5
sba (six-banded),1,,,,3783,2.59e5
sba (six-banded),2,,,,3251,3.06e5
CG8490,1,,,,5499,3.69e5
RpL26 (Ribosomal protein L26),1,,,,7842,3.44e5
CG4743,1,,,,6915,2.97e5
RpL23 (Ribosomal protein L23),1,,,,6356,3.24e5
CLS (Cardiolipin synthase),1,,,,6750,3.88e5
CG13337,1,,,,6555,3.37e5
CG34426,1,,,,6870,4.51e5
CG9107,1,,,,27238,3.83e5
Wdr82 (WD repeat domain 82),1,,,reporter ratio raised past the hit cutoff,12103,1.78e6
Wdr82 (WD repeat domain 82),2,,,reporter ratio raised past the hit cutoff (active),10965,4.69e5
SPR (Sex peptide receptor),1,,,,4519,4.48e5
SPR (Sex peptide receptor),2,,,,7322,5.97e5
SPR (Sex peptide receptor),3,,,,6032,3.96e5
SPR (Sex peptide receptor),4,,,,8758,4.22e5
slif (slimfast),1,,,,7862,2.76e5
CG2021,1,,,,7571,3.24e5
Cdc27 (Cell division cycle 27),1,,,,6843,3.67e5
RpL12 (Ribosomal protein L12),1,,,,6390,4.56e5
CG4882,1,,,,5671,4.19e5
CG13622,1,,,,7427,2.93e5
CG5664,1,,,,5351,4.17e5
CG6638,1,,,,6556,4.39e5
CG31371,1,,,,6543,4.05e5
Ccp84Ae,1,,,,4987,4.76e5
CG15047,1,,,,4968,4.20e5
CG15047,2,,,,8787,4.54e5
CG11231 (retired record),1,,,,6595,4.10e5
CG14265,1,,,,6974,4.33e5
saturn,1,,,,4938,3.54e5

Reformatted: results already given.
Target gene | reagent | siRNA reporter hit score | stable siRNA reporter change | miRNA reporter change | stable assay Renilla, run 1 (luminescence) | stable assay firefly, run 1 (luminescence)
SPR (Sex peptide receptor) | 4 | – | – | – | 8758 | 4.22e5
slif (slimfast) | 1 | – | – | – | 7862 | 2.76e5
CG2021 | 1 | – | – | – | 7571 | 3.24e5
Cdc27 (Cell division cycle 27) | 1 | – | – | – | 6843 | 3.67e5
RpL12 (Ribosomal protein L12) | 1 | – | – | – | 6390 | 4.56e5
CG4882 | 1 | – | – | – | 5671 | 4.19e5
CG13622 | 1 | – | – | – | 7427 | 2.93e5
CG5664 | 1 | – | – | – | 5351 | 4.17e5
